Counter-ions that a name gives are not always drawn. This is one part of the list. The calls rarely recur for the same compound in another form.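 Kinases were expressed as nanoluciferase fusions in K562 cells and luminescence was read every 4 h between 2 and 18 h as percent of control, DMSO set to 100% and a positive control to 0%. A time point counts as decreased when the signal drops significantly (2 sigma). The hit call is the authors' own, does not follow from the count of time points alone, and its rule is not shown.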
Tests used:
Experiment in all cases: number of time points (of 5) at which kinase-Nluc abundance scored as decreased, DMSO-normalised (count); higher = more persistent destabilization
Conditions in all cases: K562; 2-18 h
CSNK1A1 = CSNK1A1 (UniProt P48729)
CSNK1D = CSNK1D (UniProt P48730)
DDR1 = DDR1 (UniProt Q08345)
DYRK1B = DYRK1B (UniProt Q9Y463)
DYRK2 = DYRK2 (UniProt Q92630)
EGFR = EGFR (UniProt P00533)
EGFR_G719S = EGFR_G719S (UniProt P00533)
EGFR_G719S_T790M = EGFR_G719S_T790M (UniProt P00533)
EGFR_L718V = EGFR_L718V (UniProt P00533)
EGFR_L858R = EGFR_L858R (UniProt P00533)

Amino acid sequences for entries named in this document (tags omitted). A change or cut given only in a name is not applied to a line headed by its entry.
UniProt P48729: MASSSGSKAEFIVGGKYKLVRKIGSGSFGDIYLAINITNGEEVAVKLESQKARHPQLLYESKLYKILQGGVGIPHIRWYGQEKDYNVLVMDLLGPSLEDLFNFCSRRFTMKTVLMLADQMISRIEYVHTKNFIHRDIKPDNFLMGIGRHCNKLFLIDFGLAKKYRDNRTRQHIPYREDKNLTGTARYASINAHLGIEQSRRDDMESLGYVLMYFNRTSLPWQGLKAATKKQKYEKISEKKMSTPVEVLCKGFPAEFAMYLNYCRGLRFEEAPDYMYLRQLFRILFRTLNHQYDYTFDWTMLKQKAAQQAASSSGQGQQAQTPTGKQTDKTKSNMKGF
UniProt P48730: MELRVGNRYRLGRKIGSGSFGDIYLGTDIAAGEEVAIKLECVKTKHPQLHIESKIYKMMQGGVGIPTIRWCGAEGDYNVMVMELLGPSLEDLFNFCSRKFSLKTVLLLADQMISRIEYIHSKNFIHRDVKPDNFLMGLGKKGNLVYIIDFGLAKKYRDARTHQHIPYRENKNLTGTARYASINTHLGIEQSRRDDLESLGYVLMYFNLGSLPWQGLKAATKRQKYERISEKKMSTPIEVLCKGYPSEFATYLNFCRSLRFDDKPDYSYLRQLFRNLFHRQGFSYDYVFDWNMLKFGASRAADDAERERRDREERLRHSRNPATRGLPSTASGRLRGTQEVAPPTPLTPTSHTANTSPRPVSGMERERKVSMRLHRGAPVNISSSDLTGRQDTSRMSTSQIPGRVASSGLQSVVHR
UniProt Q08345: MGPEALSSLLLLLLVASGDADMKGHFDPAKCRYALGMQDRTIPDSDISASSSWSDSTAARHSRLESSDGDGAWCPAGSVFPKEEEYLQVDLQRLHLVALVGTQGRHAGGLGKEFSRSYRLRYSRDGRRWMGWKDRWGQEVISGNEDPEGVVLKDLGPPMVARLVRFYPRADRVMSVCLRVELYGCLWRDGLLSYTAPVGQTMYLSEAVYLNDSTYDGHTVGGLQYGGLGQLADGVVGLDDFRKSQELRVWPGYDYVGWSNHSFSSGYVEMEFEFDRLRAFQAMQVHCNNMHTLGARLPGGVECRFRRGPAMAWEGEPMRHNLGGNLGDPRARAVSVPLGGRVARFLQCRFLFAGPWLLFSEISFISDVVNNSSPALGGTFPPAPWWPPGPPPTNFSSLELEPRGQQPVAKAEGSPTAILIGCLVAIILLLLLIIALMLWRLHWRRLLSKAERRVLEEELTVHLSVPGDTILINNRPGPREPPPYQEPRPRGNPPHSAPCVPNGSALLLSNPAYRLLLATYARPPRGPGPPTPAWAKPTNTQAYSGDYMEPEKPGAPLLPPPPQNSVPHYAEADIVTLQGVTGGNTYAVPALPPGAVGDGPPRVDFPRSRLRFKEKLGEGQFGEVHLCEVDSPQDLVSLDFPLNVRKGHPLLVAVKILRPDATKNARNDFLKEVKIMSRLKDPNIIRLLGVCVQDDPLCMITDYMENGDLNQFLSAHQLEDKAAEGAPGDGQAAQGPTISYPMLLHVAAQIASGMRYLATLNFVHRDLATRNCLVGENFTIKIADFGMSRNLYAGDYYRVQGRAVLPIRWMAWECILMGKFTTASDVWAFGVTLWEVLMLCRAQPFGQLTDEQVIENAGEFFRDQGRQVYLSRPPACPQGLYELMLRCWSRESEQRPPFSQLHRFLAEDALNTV
UniProt Q9Y463, whole entry, looked up: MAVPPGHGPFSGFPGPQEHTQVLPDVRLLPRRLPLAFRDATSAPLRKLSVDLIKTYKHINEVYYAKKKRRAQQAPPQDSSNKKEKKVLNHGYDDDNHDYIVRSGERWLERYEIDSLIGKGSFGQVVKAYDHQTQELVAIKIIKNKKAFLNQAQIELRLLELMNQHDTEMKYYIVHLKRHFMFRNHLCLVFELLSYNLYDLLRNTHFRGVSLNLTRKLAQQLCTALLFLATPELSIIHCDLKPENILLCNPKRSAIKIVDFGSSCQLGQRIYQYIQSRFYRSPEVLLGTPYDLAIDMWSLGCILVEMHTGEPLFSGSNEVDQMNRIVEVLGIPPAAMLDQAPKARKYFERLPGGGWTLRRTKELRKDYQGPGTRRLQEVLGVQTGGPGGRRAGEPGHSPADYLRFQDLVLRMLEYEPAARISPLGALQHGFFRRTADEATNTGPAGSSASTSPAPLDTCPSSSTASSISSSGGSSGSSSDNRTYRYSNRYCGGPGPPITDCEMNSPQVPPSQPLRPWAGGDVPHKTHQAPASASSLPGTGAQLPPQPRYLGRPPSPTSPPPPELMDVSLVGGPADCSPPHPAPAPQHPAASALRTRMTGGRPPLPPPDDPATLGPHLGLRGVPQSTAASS
UniProt Q92630: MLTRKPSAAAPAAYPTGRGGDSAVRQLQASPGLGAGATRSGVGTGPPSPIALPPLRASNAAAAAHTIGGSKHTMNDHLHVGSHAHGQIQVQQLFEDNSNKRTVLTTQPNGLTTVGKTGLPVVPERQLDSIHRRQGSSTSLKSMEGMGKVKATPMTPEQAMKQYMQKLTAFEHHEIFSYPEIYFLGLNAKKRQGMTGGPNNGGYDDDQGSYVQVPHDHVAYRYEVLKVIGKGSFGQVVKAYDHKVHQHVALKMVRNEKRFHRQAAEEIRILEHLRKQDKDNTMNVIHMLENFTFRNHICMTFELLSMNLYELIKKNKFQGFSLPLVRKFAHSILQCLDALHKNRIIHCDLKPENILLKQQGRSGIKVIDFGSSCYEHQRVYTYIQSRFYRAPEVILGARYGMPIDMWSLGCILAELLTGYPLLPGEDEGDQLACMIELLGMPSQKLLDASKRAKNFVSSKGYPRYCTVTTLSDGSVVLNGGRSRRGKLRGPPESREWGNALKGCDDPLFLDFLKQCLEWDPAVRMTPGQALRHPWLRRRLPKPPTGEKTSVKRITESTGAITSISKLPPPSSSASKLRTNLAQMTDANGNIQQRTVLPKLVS

Structure (SMILES) | number of time points (CSNK1A1) | number of time points (CSNK1D) | number of time points (DDR1) | number of time points (DYRK1B) | number of time points (DYRK2) | number of time points (EGFR) | number of time points (EGFR_G719S) | number of time points (EGFR_G719S_T790M) | number of time points (EGFR_L718V) | number of time points (EGFR_L858R)
Cc1cc(Nc2nc(N[C@@H](C)c3ccc(F)cc3)c(C#N)cc2F)n[nH]1 (10 µM) | 0 | 0 | 0 | 0 | 4 | 0 | 0 | 0 | 0 | 0
N#Cc1ccc2ncnc(NC3CCC(N4CCOCC4)CC3)c2c1 (stereo not given) (10 µM) | 0 | 0 | 0 | 0 | 0 | 0 | 0 | 0 | 0 | 0
O=C1NC(=O)C(=Cc2ccc(-c3ccc(F)cc3)o2)S1 (stereo in doubt) (10 µM) | 0 | 0 | 0 | 0 | 0 | 0 | 0 | 0 | 0 | 0
C=CC(=O)Nc1cccc(C)c1Nc1ncc2cc(-c3c(Cl)c(OC)cc(OC)c3Cl)ccc2n1 (2.5 µM) | 0 | 0 | 0 | 0 | 0 | 0 | 0 | 0 | 0 | 0
COc1ccc([C@@H]2CC(=O)c3c(O)cc(O)cc3O2)cc1O [Hesperetin] (10 µM) | 0 | 0 | 0 | 0 | 0 | 0 | 0 | 0 | 0 | 0
O=C(NCCCNc1nc(Nc2cccc(NC(=O)N3CCCC3)c2)ncc1I)c1cccs1 (2.5 µM) | 0 | 0 | 2 | 0 | 0 | 0 | 0 | 0 | 0 | 0
O=c1oc2cc(O)ccc2c2ccccc12 [Urolithin B] (10 µM) | 0 | 0 | 0 | 0 | 0 | 0 | 0 | 0 | 0 | 0
COC1(c2sc3c(N4CCOCC4)nc(-c4cnc(N)nc4)nc3c2C)COC1 (2.5 µM) | 3 | 0 | 1 | 0 | 0 | 0 | 0 | 0 | 0 | 0
CN1CCN(c2ccc(C(=O)Nc3cc(-c4cccc(NS(=O)(=O)c5ccccc5)c4)[nH]n3)cc2)CC1 [BPR1J-097 Hydrochloride] (2.5 µM) | 0 | 0 | 0 | 0 | 0 | 0 | 0 | 0 | 0 | 0
Cn1cc(-c2ccc(CNc3cc(-c4cnc5cc(OCCCN6CCCC6)ccn45)ncn3)cc2)cn1 (10 µM) | 0 | 0 | 0 | 0 | 0 | 0 | 0 | 0 | 0 | 0
COc1cc(N2CCC(N3CCN(C)CC3)CC2)ccc1Nc1ncc(Cl)c(Nc2ccccc2P(C)(C)=O)n1 [Brigatinib] (2 µM) | 0 | 0 | 2 | 0 | 1 | 0 | 0 | 0 | 0 | 0
O=c1cc(O)cc(/C=C/c2ccc(O)c(O)c2)o1 [Hispidin] (10 µM) | 0 | 0 | 0 | 0 | 0 | 0 | 0 | 0 | 0 | 0
C=C(CCC=C(C)C)[C@H]1CC[C@]2(C)[C@@H]1[C@H](O)C[C@@H]1[C@@]3(C)CC[C@H](O[C@@H]4O[C@H](CO)[C@@H](O)[C@H](O)[C@H]4O[C@@H]4O[C@H](CO)[C@@H](O)[C@H](O)[C@H]4O)C(C)(C)[C@@H]3CC[C@]12C [Ginsenoside Rk1] (10 µM) | 0 | 0 | 0 | 0 | 0 | 0 | 0 | 0 | 0 | 0
CN1C(=O)C(Cc2c[nH]c3ccccc23)NC1=S (stereo not given) [Necrostatin-1] (10 µM) | 0 | 0 | 0 | 0 | 0 | 0 | 0 | 0 | 0 | 0
O=C(NC(NC(=S)Nc1ccc(F)c([N+](=O)[O-])c1)C(Cl)(Cl)Cl)C(c1ccccc1)c1ccccc1 (stereo not given) (10 µM) | 0 | 0 | 0 | 0 | 0 | 0 | 0 | 0 | 0 | 0
CC(=NNC(=O)c1ccc(C)c(Br)c1)c1ccc(O)cc1O [mTOR inhibitor-1] (2.5 µM) | 0 | 0 | 0 | 0 | 2 | 0 | 0 | 0 | 0 | 0
OC[C@H]1O[C@@H](Oc2cc3c(O)cc(O)cc3[o+]c2-c2cc(O)c(O)c(O)c2)[C@H](O)[C@@H](O)[C@@H]1O [Delphinidin 3-glucoside (chloride)] (10 µM) | 0 | 0 | 0 | 0 | 0 | 0 | 0 | 0 | 0 | 0
NCCN1CCN(C/C=C/C(=O)N2CCC[C@@H](n3nc(-c4ccc(Oc5ccccc5)cc4)c4c(N)ncnc43)C2)CC1 [Ibrutinib-MPEA] (10 µM) | 0 | 0 | 0 | 0 | 0 | 0 | 0 | 0 | 0 | 0

Filtered by structure: those above with a cyano group.
Structure (SMILES) | number of time points (CSNK1A1) | number of time points (CSNK1D) | number of time points (DDR1) | number of time points (DYRK1B) | number of time points (DYRK2) | number of time points (EGFR) | number of time points (EGFR_G719S) | number of time points (EGFR_G719S_T790M) | number of time points (EGFR_L718V) | number of time points (EGFR_L858R)
Cc1cc(Nc2nc(N[C@@H](C)c3ccc(F)cc3)c(C#N)cc2F)n[nH]1 (10 µM) | 0 | 0 | 0 | 0 | 4 | 0 | 0 | 0 | 0 | 0
N#Cc1ccc2ncnc(NC3CCC(N4CCOCC4)CC3)c2c1 (stereo not given) (10 µM) | 0 | 0 | 0 | 0 | 0 | 0 | 0 | 0 | 0 | 0

Additional results follow:

Structure (SMILES) | number of time points (CSNK1A1) | number of time points (CSNK1D) | number of time points (DDR1) | number of time points (DYRK1B) | number of time points (DYRK2) | number of time points (EGFR) | number of time points (EGFR_G719S) | number of time points (EGFR_G719S_T790M) | number of time points (EGFR_L718V) | number of time points (EGFR_L858R)
O=C(/C=C/c1ccc(O[C@@H]2O[C@H](CO)[C@@H](O)[C@H](O)[C@H]2O[C@@H]2OC[C@](O)(CO)[C@H]2O)cc1)c1ccc(O)cc1O [Isoliquiritin apioside] (10 µM) | 0 | 0 | 0 | 0 | 0 | 0 | 0 | 0 | 0 | 0
COc1cc(C(N)=O)nc(-c2cccc(C#C[C@]3(O)CCN(C)C3=O)c2)c1 (10 µM) | 0 | 0 | 0 | 0 | 0 | 0 | 0 | 0 | 0 | 0
CS(=O)(=O)c1ccc(-c2noc(C(F)(F)F)c2-c2ccccc2)cc1 (10 µM) | 0 | 0 | 0 | 0 | 0 | 0 | 0 | 0 | 0 | 0
Cc1cc(-c2cc(OC(=O)c3ccccc3)ccc2Cl)cc2nnc(Nc3ccc(OCCN4CCCC4)cc3)nc12 (0.5 µM) | 0 | 0 | 0 | 0 | 0 | 0 | 0 | 0 | 0 | 0
COc1c(NC(=O)C(=O)c2ccc(OCCN3CCOCC3)c3ccccc23)cc(C(C)(C)C)cc1NS(C)(=O)=O (2.5 µM) | 0 | 0 | 0 | 0 | 0 | 0 | 0 | 0 | 0 | 0
Cc1c(NC(=O)OC[C@@H]2COCCN2)cn2ncnc(Nc3ccc4c(cnn4Cc4cccc(F)c4)c3)c12 (10 µM) | 0 | 0 | 0 | 0 | 0 | 0 | 0 | 0 | 0 | 0
COc1cc2c[n+](C)c3c4cc5c(cc4ccc3c2cc1OC)OCO5 [Nitidine (chloride)] (2 µM) | 0 | 0 | 0 | 0 | 0 | 0 | 0 | 0 | 0 | 0
O=C(O)c1cc(O)ccc1O [2,5-Dihydroxybenzoic acid] (10 µM) | 0 | 0 | 0 | 0 | 0 | 0 | 0 | 0 | 0 | 0
C=C(C)C(=O)Nc1cccc(-c2ncnc3[nH]cc(C(=O)OCC)c23)c1 (10 µM) | 0 | 0 | 0 | 0 | 0 | 0 | 0 | 0 | 0 | 0
CC1CN(C(=O)Nc2ccc(Cl)c(Cl)c2)C(=Nc2ccc(F)cc2)S1 (stereo not given) (10 µM) | 0 | 0 | 0 | 0 | 0 | 0 | 0 | 0 | 0 | 0
C[C@@H]1C(=O)O[C@H](C)[C@H]1C[C@@H](O)[C@](C)(O)[C@H]1CC[C@@]2(O)C3=CC(=O)[C@@H]4C[C@@H](O)[C@@H](O)C[C@]4(C)[C@H]3CC[C@]12C [Cyasterone] (10 µM) | 0 | 0 | 0 | 0 | 0 | 0 | 0 | 0 | 0 | 0
O=C1c2ccc(Nc3ccc(F)cc3F)cc2CCc2ccc(OC[C@H](O)CO)cc21 [Skepinone-L] (2.5 µM) | 0 | 0 | 0 | 0 | 0 | 0 | 0 | 0 | 0 | 0
c1cc2c(cc1O[C@H]1OC[C@H]3[C@@H]1CO[C@@H]3c1ccc3c(c1)OCO3)OCO2 [Sesamolin] (10 µM) | 0 | 0 | 0 | 0 | 0 | 0 | 0 | 0 | 0 | 0
C/C(=C1/C(=O)Nc2ccc(NC(N)=O)cc21)c1ccc[nH]1 (10 µM) | 0 | 0 | 3 | 0 | 2 | 0 | 0 | 0 | 0 | 0
Nc1ncnc2c1ncn2[C@@H]1O[C@H](CO)C[C@H]1O [Cordycepin] (10 µM) | 0 | 0 | 0 | 0 | 0 | 0 | 0 | 0 | 0 | 0
COc1cc2ncn(-c3cc(OCc4ccccc4S(C)(=O)=O)c(C#N)s3)c2cc1OC (10 µM) | 0 | 0 | 0 | 0 | 0 | 0 | 0 | 0 | 0 | 0
COCCO[C@@H]1[C@H](O)[C@@H](CO)O[C@H]1n1cnc2c(=O)[nH]c(N)nc21 [2′-O-(2-Methoxyethyl)guanosine] (10 µM) | 0 | 0 | 0 | 0 | 0 | 0 | 0 | 0 | 0 | 0

From the supplement of paper PMC12823440, “Inhibitors supercharge kinase turnover through native proteolytic circuits” (Nature, 2025)
